Measured values: publication PMC4061450
Results are given in words; binding and its absence hold for the method and conditions named. In cells and extracts the contact can be indirect. Some entries that bind do so weakly or less than the wild type.

Molecular target: T1, Derlin-1 (human (endogenous in A549)) (UniProt Q9BUN8)
T1 sequence: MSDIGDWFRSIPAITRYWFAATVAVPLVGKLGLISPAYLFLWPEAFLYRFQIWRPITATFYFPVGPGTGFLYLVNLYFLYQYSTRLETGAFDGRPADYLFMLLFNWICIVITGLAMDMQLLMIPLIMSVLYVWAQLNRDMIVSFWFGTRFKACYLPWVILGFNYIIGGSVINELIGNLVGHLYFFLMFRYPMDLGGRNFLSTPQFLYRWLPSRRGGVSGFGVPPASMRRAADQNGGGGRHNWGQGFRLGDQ
Experiment: co-IP; A549 cells treated with TM for 8 h; lysate (50 mM Tris pH 7.5, 150 mM NaCl, 1 mM EDTA, 1% Triton X-100) incubated with Derlin-1 antibody, A + G agarose beads, 4°C; western blot with p62 and Derlin-1 antibodies

binding: binds
Substance: p62/SQSTM1 (from UniProt Q13501 1-440)
